Assay results: patent publication US5547956A, “Pharmaceutical composition and the method for treating drug addicts' withdrawal syndromes and detoxifying addicts by the same” (priority 1991, dated 1996)
Read-outs that look alike come from different tables or passages of the source.

Key:
mice [1] = settings: allyl-dromaran 10 mg/kg ip; 20 days: morphine 80 mg/kg (total 1600, 10 mice), lappaconitine 8.0 mg/kg (total 160, 18 mice)
Procedure: Male mice weighing 18~22 g were used for the test and divided into 3 groups (10 for every group). […] The second group of mice was given a subcutaneous injection of lappaconitine hydrobromide (8 mg/kg) for 20 days. The third group was a control group and was given physiological saline. 6 hours after being given the last dose, all the mice were given an intraperitoneal injection of 10 mg/kg allyl dromaran, and then were placed in a cone cylinder cage (diameter=30 cm, height=35 cm). The number of jumps for each mouse in 60 minutes was recorded.

Morphine-dependent Mice = settings: morphine 100 mg/kg sc twice a day 8 days, nalorphine 50 mg/kg
Procedure: In the first 4 days, administration was given once per 6 hours, four times a day. From day 5 through day 7, administration was given once every 8 hours, three times a day. On day 5 and day 8 of treatment, respectively, subcutaneous injections of nalorphine (50 mg/kg) were made to […].

mice [2] = settings: nalorphine 50 mg/kg; 2 days: morphine initial 2.5 mg/kg (total 157.5), lappaconitine initial 3.5 mg/kg (total 35); 10 mice tested
Procedure: In another case, male mice weighing 18-22 g were divided into four groups (10 for every group). Two groups of mice were injected subcutaneously with lappaconitine hydrobromide 7 times within 2 days. The initial dosage was 3.5 mg/kg. Then, additional doses of 0.5 mg/kg and 1.0 mg/kg were given for every injection in each group, respectively. […] The initial dosage was 2.5 mg/kg and an escalating dose schedule of 5, 10, 20, 30, 40, 50 mg/kg was applied. The fourth group of mice was used as control group and was given physiological saline. Two hours after the last injection, all the mice of the above four groups were injected with 50 mg/kg nalorphine through the intraperitoneal cavity. The number of jumps within 10 minutes in each group of mice were recorded.

## CN1CC[C@]23c4c5ccc(O)c4O[C@H]2[C@@H](O)C=C[C@H]3[C@H]1C5.Cl [Morphine, morphine hydrochloride, reference compound]
Mice [1]
  number of jumping mice: 9
Morphine-dependent Mice
  reactions after nalorphine in morphine-treated mice: frequent movement, attacking reactions and jumping reactions
Mice [2]
  number of jumping mice: 7
